From PubChem BioAssay AID540275 (National Center for Advancing Translational Sciences (NCATS), 2011)
Where “and” joins values, the source holds several entries; their conditions need not be identical. Equal values may be shown once. Screen size: about 320,000 compounds; about 620 (0.19%) were called active. The inconclusive results got no clear call from the source; some entries with a clear call stand among them for comparison. Cut-off read from the data, not from the text of the source: active = activation above about 80%; inconclusive = between about 30% and that limit; inactive = weaker than that.

Amino acid sequences for entries named in this document (tags omitted).
UniProt Q8NER1, whole entry, looked up: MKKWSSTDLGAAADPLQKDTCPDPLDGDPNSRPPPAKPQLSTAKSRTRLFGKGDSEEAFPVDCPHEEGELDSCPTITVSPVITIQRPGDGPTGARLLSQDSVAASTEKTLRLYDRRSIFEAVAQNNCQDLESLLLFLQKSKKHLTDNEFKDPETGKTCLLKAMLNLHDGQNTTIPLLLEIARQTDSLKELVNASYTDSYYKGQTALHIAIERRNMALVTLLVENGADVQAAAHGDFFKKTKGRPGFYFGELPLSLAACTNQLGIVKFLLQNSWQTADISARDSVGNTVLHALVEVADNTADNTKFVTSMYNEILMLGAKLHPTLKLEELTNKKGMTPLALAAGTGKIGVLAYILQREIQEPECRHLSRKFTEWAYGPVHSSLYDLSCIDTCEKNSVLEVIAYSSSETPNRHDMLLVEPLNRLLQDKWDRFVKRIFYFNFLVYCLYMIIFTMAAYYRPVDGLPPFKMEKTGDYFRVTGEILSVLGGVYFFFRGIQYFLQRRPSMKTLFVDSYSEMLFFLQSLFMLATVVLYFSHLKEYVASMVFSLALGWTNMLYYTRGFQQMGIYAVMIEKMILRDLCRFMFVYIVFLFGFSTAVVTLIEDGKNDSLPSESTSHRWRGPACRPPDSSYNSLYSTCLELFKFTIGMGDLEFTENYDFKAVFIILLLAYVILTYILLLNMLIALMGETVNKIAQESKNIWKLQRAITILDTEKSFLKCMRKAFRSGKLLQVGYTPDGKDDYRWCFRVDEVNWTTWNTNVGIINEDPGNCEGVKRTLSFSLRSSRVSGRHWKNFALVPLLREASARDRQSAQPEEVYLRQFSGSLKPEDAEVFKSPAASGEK

target: Transient receptor potential cation channel subfamily V member 1 (Homo sapiens) (UniProt Q8NER1); assay: HTS Assay for Compounds that Act as Agonists of the Vanilloid Receptor 1; conditions: TRPV1-expressing cells, Fluo-8 calcium influx, agonist mode; at 8.33 µM; hits give high values; note: 0% is about no effect
How it was run: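 TRPV1-expressing cells were cultured overnight at 35.5C and loaded with Fluo-8 calcium dye for 40 to 90 min at room temperature. After a 10 s baseline, compound was added and calcium influx was read kinetically for 3 min (ex 480/em 520 nm).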

| Compound | activation |
| --- | --- |
| Cc1ccc(OCC(=O)N2CCN(CC3CC4C=CC3C4)CC2)cc1 (stereo unspecified) | inconclusive: 43.9% |
| CN1C(CC(O)c2ccccc2)CCCC1CC(O)c1ccccc1 (stereo unspecified) | inactive: 1.04% |
| CN(C)C1=C(C#N)C(c2ccccc2)=NP(N(C)C)(N(C)C)=N1 | inconclusive: 44% |
| CCOC(=O)C(C)Oc1cc(C)cc2oc(=O)c3c(c12)CCCC3 (stereo unspecified) | inconclusive: 58.5% |
| Cc1c(Oc2cc(NN3CCCCC3)c([N+](=O)[O-])cc2[N+](=O)[O-])cccc1[N+](=O)[O-] | inconclusive: 57.8% |
| Cc1ccc(N2C(=O)NC(=O)/C(=C/C=C/c3ccco3)C2=O)cc1 | inactive: 9.15% |
| CCCOP(=O)(OCCC)C(NC(=O)c1ccccc1)=C(Cl)Cl | inconclusive: 49.4% |
| Cc1ccc(C(=O)N[C@@H](C)CN2C3=NC[C@H](Cc4ccccc4)N3C[C@H]2Cc2ccc(O)cc2)cc1Br | inactive: -1.51% |
| Cc1nc2c(=O)n(C)c(=O)nc-2n(C)n1 | inactive: 2.64% |
| O=C(Cc1ccccc1)N1CCN(Cc2ccccc2Cl)CC1 | inconclusive: 38.1% |
| Oc1cc2c(cc1CN1CCN(c3ccccc3F)CC1)OCO2 | inactive: 0.853% |
| CC[N+](CC)(CC)CC | inactive: 1.04% |
| CCC(COC(=O)c1cc(OC)c(OC)c(OC)c1)(c1ccccc1)N(C)C (stereo unspecified) | inactive: 16.1% and inactive: 18.7% |
| CCOP(=O)(OCC)C(NC(=O)c1cccc2ccccc12)C(Cl)(Cl)Cl (stereo unspecified) | inactive: -3.18% |
| NP(=O)(Oc1ccc(Cl)cc1)Oc1ccc(Cl)cc1 | inconclusive: 35.7% |
| O=C(NC(=S)N1C[C@H]2C[C@H](C1)c1cccc(=O)n1C2)c1ccc(Cl)cc1 | inactive: -0.327% |
| O=C(c1ccc(C(F)(F)F)cc1)C1CCCN(Cc2ccncc2)C1 (stereo unspecified) | inconclusive: 75.5% |
| CNC(=O)Oc1ccc(-c2cn3cc(C)ccc3n2)cc1 | inactive: 3.17% |
| COc1ccc(Cl)cc1C(=O)C1CCCN(Cc2cnc(C)s2)C1 (stereo unspecified) | inconclusive: 31.9% |
| CN(CCOc1ccc(C=C2C(=O)NC(=O)NC2=O)cc1)c1ccccn1 | inactive: 1.58% |
| COC(=O)C1=C(c2ccc(Cl)c(C(F)(F)F)c2)C[C@@H]2CC[C@H]1N2C(=O)NCCOc1ccccc1 | inactive: 4.51% |
| CS(=O)(=O)N1CCCC(C(=O)N2CCC3(CC2)OCCO3)C1 (stereo unspecified) | inactive: -0.705% |

3 compounds already listed, sorted by formula weight, ascending.

| Compound | activation |
| --- | --- |
| CN1C(CC(O)c2ccccc2)CCCC1CC(O)c1ccccc1 (stereo unspecified) | inactive: 1.04% |
| Cc1ccc(OCC(=O)N2CCN(CC3CC4C=CC3C4)CC2)cc1 (stereo unspecified) | inconclusive: 43.9% |
| O=C(NC(=S)N1C[C@H]2C[C@H](C1)c1cccc(=O)n1C2)c1ccc(Cl)cc1 | inactive: -0.327% |

Following part

| Compound | activation |
| --- | --- |
| Nc1ncc(P(=S)(N2CCOCC2)N2CCOCC2)s1 | inactive: -1.36% |
| CN1CC[C@@]23CCCC[C@@H]2[C@@H]1Cc1ccc(O)cc13 | inactive: -0.0538% |
| Cc1ccc(NC(=O)c2cc(-c3ccccc3)n(CCCN3CCOCC3)c2C)cc1 | inconclusive: 58.5% |
| COc1ccc(-c2nc3ccccc3c(=O)n2-c2ccc(OC)cc2)cc1 | inconclusive: 60.8% |
| COc1ccc(C(=O)C2CCCN(Cc3ccc(F)cc3F)C2)cc1F (stereo unspecified) | inconclusive: 36.4% |
| COC(=O)C1=C(c2ccccc2OCc2ccccc2)C[C@@H]2CC[C@H]1N2C(=O)NC1CCN(Cc2ccccc2)CC1 | inconclusive: 30.2% |
| O=C(N/N=C\C1C(=O)NC(=S)N(c2ccccc2)C1=O)c1ccc(O)cc1 (stereo unspecified) | inconclusive: 79.9% |
| COC(=O)C[C@]1(C(=O)OC)CN(C#N)N(c2ccc(Cl)cc2)C12c1ccccc1-c1ccccc12 | inactive: 0.709% |
| Cc1ccc(OCC(=O)N2CCN(Cc3ccc4c(c3)OCO4)CC2)cc1 | inconclusive: 59.1% |
| Cc1ccc(OP(N)(=O)Oc2ccc(C)cc2)cc1 | inconclusive: 45.3% |
| O=C(N/N=C/c1c(O)n(CCc2ccccc2)c(=O)[nH]c1=O)c1ccccc1 | inactive: 15.3% |
| COc1ccccc1CCNC1CCC(C(C)(C)C)CC1 (stereo unspecified) | inactive: 3.19% |
| CCN1/C(=C\C=C\C2=[N+](CC)c3ccccc3C2(C)C)C(C)(C)c2ccccc21 | inconclusive: 45% |
| CCOP(=S)(NN(Cc1ccccc1)C(=O)c1ccccc1)OCC | inconclusive: 31.8% |
| C=Cn1c(P(=S)(N2CCOCC2)N2CCOCC2)cc2c1CCCC2 | inactive: 17.5% |
| CN1/C(=C\C=C2C(=O)NC(=S)NC2=O)C(C)(C)c2ccccc21 | active: 98.2% |
| O=C(N/N=C/c1c(O)n(CCC2=CCCCC2)c(=S)[nH]c1=O)c1ccccc1 | inconclusive: 30.1% |
| Cc1ccc(CN2C3CCCC2CC(NC(=S)NCc2ccccc2)C3)cc1 (stereo unspecified) | inactive: 29.3% |
| CN1CCN(c2ccc([N+](=O)[O-])c(Sc3nncn3C)c2)CC1 | inactive: 11.5% |
| CCC1(C)OC(c2ccccc2)=C/C(=C/C=C2C(=O)NC(=O)NC2=O)O1 (stereo unspecified) | inconclusive: 34.4% |
| NNC(=O)c1ccc(O)cc1 | inconclusive: 54.6% |
| CN1CCc2nc(SCC(=O)OC(C)(C)C)c(C#N)cc2C1 | inconclusive: 39.3% |

Of the compounds above, four have fluorine.

| Compound | activation |
| --- | --- |
| Oc1cc2c(cc1CN1CCN(c3ccccc3F)CC1)OCO2 | inactive: 0.853% |
| O=C(c1ccc(C(F)(F)F)cc1)C1CCCN(Cc2ccncc2)C1 (stereo unspecified) | inconclusive: 75.5% |
| COC(=O)C1=C(c2ccc(Cl)c(C(F)(F)F)c2)C[C@@H]2CC[C@H]1N2C(=O)NCCOc1ccccc1 | inactive: 4.51% |
| COc1ccc(C(=O)C2CCCN(Cc3ccc(F)cc3F)C2)cc1F (stereo unspecified) | inconclusive: 36.4% |

Remaining list, next part:

| Compound | activation |
| --- | --- |
| COc1ccc(OC)c(N2C(=O)/C(=C/c3ccco3)C(=O)NC2=S)c1 | inactive: -5.03% |
| Cc1cc(N2C(=O)CC(N3CCC(n4c(=O)[nH]c5ccccc54)CC3)C2=O)no1 (stereo unspecified) | inactive: -4.39% |
| COC(=O)C1=C(c2c(C)noc2C)C[C@@H]2CC[C@H]1N2C(=O)NC1Cc2ccccc2C1 | inconclusive: 53.7% |
| Cc1cc(OCCCC(=O)NCc2cccs2)ccc1Cl | inconclusive: 36.6% |
| c1ccc(CNCCc2c[nH]c3ccccc23)cc1 | inactive: 5.62% |
| C[n+]1c2ccccc2nc2ccc(NCCO)cc21 | inactive: -1.06% |
| Cc1cccc(OP(=O)(Oc2cccc(C)c2)OC(c2ccccc2)C(F)(F)F)c1 (stereo unspecified) | inconclusive: 34.6% |
| O=C(Cc1ccccc1)N1CCN(Cc2cccc(Br)c2)CC1 | inconclusive: 49.4% |
| CC(C)(C)n1cc(C(=O)c2ccccc2)cc1-c1ccccc1 | inconclusive: 35.3% |
| O=c1c2ccc(Cl)cc2[nH]c(=S)n1-c1cccnc1 | inactive: -2.52% |
| CCn1c(O)c(/C=N/NC(=O)c2ccccc2)c(=O)n(CC)c1=S | inconclusive: 32.7% |
| CN(N=O)c1cc(O)ccc1O | inactive: -1.02% |
| CCCCn1c(O)c(C=NC2CC3CCC2(C)C3(C)C)c(=O)[nH]c1=O (stereo unspecified) | inconclusive: 39.9% |
| C=CCn1c(O)c(C(C)=NCCCN(C)C)c(=O)[nH]c1=O | inactive: -1.1% |
| COc1cccc(CN2CCN(C(=O)COc3ccc4ccccc4c3)CC2)c1 | inconclusive: 38% |
| CNc1ccc2oc(C[C@H]3O[C@@]4(CC[C@H]3C)O[C@H]([C@H](C)C(=O)c3ccc[nH]3)[C@H](C)C[C@H]4C)nc2c1C(=O)O | inconclusive: 51.7% |
| COC(=O)C1=C(c2ccc(F)cc2OCc2ccccc2)C[C@@H]2CC[C@H]1N2C(=O)NCCCOC(C)C | inconclusive: 37.7% |
| C=CCN1C(=O)NC(=O)/C(=C/c2ccc(OCC(=O)Nc3ccc(C)cc3)cc2)C1=O | inconclusive: 49.6% |
| Cc1ccc2c(c1)CC1(CN2C)C(=O)NC(=O)N(c2ccccc2C)C1=O (stereo unspecified) | inactive: -2.14% |
| COC(=O)[C@@H]1C[C@H]1[C@@H](NP(=O)(c1ccccc1)c1ccccc1)c1ccccc1 | inconclusive: 64.8% |
| Cc1ccc(/C=C2\C(=O)NC(=S)N(c3ccc(F)cc3)C2=O)s1 | inactive: -1.44% |
| COc1ccccc1OCCCn1cc(C(C)=O)c2ccccc21 | inactive: 1.34% |

| Compound | activation |
| --- | --- |
| O=C(c1ccc(Cl)cc1)C1CCCN(Cc2cccc3ncccc23)C1 (stereo unspecified) | inactive: -4% |
| COC(=O)C1=C(c2cccc(Cl)c2)C[C@@H]2CC[C@H]1N2C(=O)N1CCCC1 | inconclusive: 43.3% |
| COC(=O)C1C2c3ccccc3C(c3ccccc32)C1C(=O)OC (stereo unspecified) | inactive: -2.87% |
| CCOC(=O)c1c(C=O)c2ccccc2n1Cc1ccccc1 | inconclusive: 42.3% |
| COC(=O)[C@]12OC[C@]34C([C@@H](O)[C@@H]1O)[C@]1(C)CC(=O)C(O)=C(C)[C@@H]1C[C@H]3OC(=O)[C@H](O)[C@@H]24 (stereo partly specified) | inactive: 0.73% |
| COc1ccccc1N1CCN(Cc2ccc(Br)s2)CC1 | inconclusive: 30.6% |
| C[C@]12CCC3[C@@H](CC[C@H]4C[C@@H](O)CC[C@]34C)C1CCC2=O (stereo partly specified) | inconclusive: 51.1% |
| CC1CC(OP(O)(=S)c2ccc(N(C)C)cc2NC(=O)c2cccs2)CC(C)(C)C1 (stereo unspecified) | inconclusive: 30.2% |
| CCN(CC)c1ccc(/C=C/[N+](=O)[O-])cc1 | inconclusive: 42.1% |
| O=C(c1cn(Cc2ccccc2)c2ccccc12)N1CCCCC1 | inconclusive: 36.6% |
| CN1C(=O)C(Cc2c[nH]c3ccccc23)C(=O)N(C)C1=O | inactive: -1.57% |
| Cc1ccc(N2C(=O)NC(=O)/C(=C\c3cc(C)n(-c4cc(C(=O)O)cc(C(=O)O)c4)c3C)C2=O)cc1 | inactive: -1.47% |
| CN1CCN(C(=O)COc2ccc(-c3nc4ccccc4s3)cc2)CC1 | inactive: 12.3% |
| COc1ccc2c3c1OC1C(O)C=CC4C(C2)[N+](C)(C)CCC341 (stereo unspecified) | inactive: 1.2% |
| O=C(CSC1c2ccccc2-c2ccccc21)N/N=C/c1ccc(C(=O)O)cc1 | inactive: 3.14% |
| CCC(=Nc1ccc2c(c1)CCC2)c1c(O)n(-c2ccc(OC)cc2)c(=O)[nH]c1=O | inactive: 2.81% |
| Fc1ccc(C(OCCN2CCCC2)c2ccc(Br)cc2)cc1 (stereo unspecified) | inactive: 4.22% |
| C[C@]12CC[C@H](O)C[C@@H]1CC[C@@H]1[C@@H]2CC[C@]2(C)C(=O)CC[C@@H]12 | inconclusive: 58.2% |
| COc1ccccc1N1C(=O)NC(=O)C2(Cc3cc(C)ccc3N(C)C2)C1=O (stereo unspecified) | inactive: 0.292% |
| CC(=O)Nc1nnc(CCN(CCc2nnc(NC(C)=O)s2)[N+](=O)[O-])s1 | inactive: 7.62% |
